Results taken from patent publication US20170313978.
Construct, isoform or probe ends are uncertain for at least one entry. For some of these results: A negative result means that nothing was seen under these conditions. For some of these results: Protein sequences can lack the tags named with them.

By UniProt entry, the sequences of proteins in these tests, tags left out. Where a name states a change or a piece, a line headed by the entry shows the natural chain unless it says otherwise.
UniProt P48431: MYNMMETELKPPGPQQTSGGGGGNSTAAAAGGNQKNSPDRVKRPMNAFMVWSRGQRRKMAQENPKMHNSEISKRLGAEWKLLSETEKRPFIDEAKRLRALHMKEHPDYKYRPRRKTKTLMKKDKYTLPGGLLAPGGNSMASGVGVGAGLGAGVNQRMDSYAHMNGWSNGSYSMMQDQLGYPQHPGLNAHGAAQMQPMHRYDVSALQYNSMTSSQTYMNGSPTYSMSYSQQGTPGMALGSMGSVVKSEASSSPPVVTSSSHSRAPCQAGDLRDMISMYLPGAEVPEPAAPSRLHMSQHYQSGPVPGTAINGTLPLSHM
UniProt Q01860: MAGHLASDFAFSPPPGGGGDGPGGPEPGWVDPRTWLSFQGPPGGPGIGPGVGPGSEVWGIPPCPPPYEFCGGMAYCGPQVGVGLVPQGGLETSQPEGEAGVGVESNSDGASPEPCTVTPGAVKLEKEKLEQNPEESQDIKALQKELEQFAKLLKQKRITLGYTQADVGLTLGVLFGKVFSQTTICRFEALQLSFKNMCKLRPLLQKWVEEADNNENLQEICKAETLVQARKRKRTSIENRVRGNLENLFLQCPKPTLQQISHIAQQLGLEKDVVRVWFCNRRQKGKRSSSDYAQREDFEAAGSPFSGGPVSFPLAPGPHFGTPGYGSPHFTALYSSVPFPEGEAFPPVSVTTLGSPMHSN
UniProt Q9H9S0, whole entry: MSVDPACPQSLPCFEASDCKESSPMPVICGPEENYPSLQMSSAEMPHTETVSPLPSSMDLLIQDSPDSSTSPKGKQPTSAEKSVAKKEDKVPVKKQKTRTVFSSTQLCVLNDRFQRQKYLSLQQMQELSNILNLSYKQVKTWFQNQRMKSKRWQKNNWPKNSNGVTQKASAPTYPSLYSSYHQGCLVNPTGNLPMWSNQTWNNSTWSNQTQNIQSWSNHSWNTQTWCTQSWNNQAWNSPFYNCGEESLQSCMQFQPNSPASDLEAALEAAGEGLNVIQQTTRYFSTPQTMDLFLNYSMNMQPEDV

Columns and labels:
Experiment in all cases: activity in cells
[1] = molecular target: SOX2 (UniProt P48431); conditions: overexpression had no effect in HFF-1; indirect; protein in cells; protein details: expression plasmid
[2] = molecular target: T1, LBP9 (TFCP2L1), in cells (Homo sapiens) (UniProt Q9NZI6); conditions: protein in cells
T1 sequence (looked up, limits assumed): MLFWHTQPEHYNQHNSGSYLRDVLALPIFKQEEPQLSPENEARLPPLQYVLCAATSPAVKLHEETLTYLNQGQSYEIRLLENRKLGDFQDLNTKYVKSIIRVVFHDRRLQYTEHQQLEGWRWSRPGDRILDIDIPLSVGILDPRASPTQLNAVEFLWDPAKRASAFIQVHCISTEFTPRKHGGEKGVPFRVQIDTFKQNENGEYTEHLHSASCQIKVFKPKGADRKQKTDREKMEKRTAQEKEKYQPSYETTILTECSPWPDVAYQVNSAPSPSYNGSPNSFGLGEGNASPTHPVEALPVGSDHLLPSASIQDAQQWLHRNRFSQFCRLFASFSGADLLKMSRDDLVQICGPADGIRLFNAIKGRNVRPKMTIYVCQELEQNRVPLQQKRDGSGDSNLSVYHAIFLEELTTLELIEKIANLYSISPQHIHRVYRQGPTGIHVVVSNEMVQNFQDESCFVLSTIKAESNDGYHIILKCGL

[3] = system: KLF4; conditions: ectopic expression activates reporter in HFF-1; indirect; protein in cells; protein details: expression plasmid
[4] = system: c-MYC; conditions: overexpression had no effect in HFF-1; indirect; protein in cells; protein details: expression plasmid
[5] = molecular target: OCT4 (UniProt Q01860); conditions: ectopic expression activates reporter in HFF-1; indirect; protein in cells; protein details: expression plasmid
[6] = molecular target: NANOG, in cells (UniProt Q9H9S0); conditions: ectopic expression activates reporter in HFF-1; indirect; synergy with LBP9; protein in cells; protein details: expression plasmid

| Sequence | activity on this sequence [1] | activity on this sequence ([2]; ectopic expression activates reporter in HFF-1, indirect) | activity on this sequence [3] | activity on this sequence [4] | activity on this sequence [5] | activity on this sequence [6] | activity on this sequence ([2]; GFP reporter in hiPSCs, signal clearly detected) |
| --- | --- | --- | --- | --- | --- | --- | --- |
| ATGCTGCGAGATGGGAAACACATACAAAATCTTCAACCTTCAGTAAGTAAAAACCTTCTCTATTAAAATCTGCAAAGTGTATTCATTTGTTCTAAAATTATTTGCTAAGTGCCCACACAGCACTAGGAATGAAACATAAAAAAATCTCTTCCCTCACTTAGCTTCGTATTCTCTTTGGGAATGTCAGGCCTCTGAGCCCAAGCCAAGCCATCGCATCCCCTATGACATGCACGTACACGCCCAGATGGCCTGAAGTAACTGAAGAATCACAAAAGAAGTGAATATGCCCTGCCCCACCTTAACTGATGACATTCCACCACAAAAGAAGTGTAAATGGCCAGTCCTTGCCTTAACTGATGACATTACCTTGTGAAAGTCCTTTTCCTGGCTCATCCTGGCTCAAAAAGCACCCCCACTGAGCACCTTGCGACCCCCCGCTCCTACCCGCCAGAGAACAAACCCCCTTTGACTGTAATTTTCCTTTACCTAACCAAATCCTATAAAACGGCCCCACCCTTATCTCCCTTCGCTGACTCTCTTTTCGGACTCAGCCCGCCTGCACCCAGGTGAAATAAACAGCCTCGTTGCTCACACAAAGCCTGTTTGGTGGTCTCTTCACACGGACGCGCATGAAATTTGGTGCCGTGACTCGGATCGGGGGACCTCCCTTGGGAGATCAATCCCCTGTCCTCCTGCTCTTTGCTCCGTGAGAAAGATCCACCTACGACCTCAGGTCCTCAGACCAACCAGCCCAAGAAACATCTCACCAATTTCAAATCCGGTAAGCGGCCTCTTTTTACTCTGTTCTCCAACCTCCCTCACTATCCCTCAACCTCTTTCTCCTTTCAATCTTGGCGCCACACTTCAATCTCTCCCTTCTCTTAATTTCAATTCCTTTCATTCTCTGGTAGAGACAAAAGAGACATGTTTTATCCGTGAACCCAAAACTCCGGCGCCGGTCACGGACTGGGAAGGCAGTCTTCCCTTGGTGTTTAATCATTGCAGGGACGCCTCTCTGATTTCACGTTTCAGACCACGCAGGGATGCCTGCCTTGGTCCTTCACCCTTAGCGGCAAGTCCCGCTTTCCTGGGGCAGGGGCAAGTACCCCTCAACCCCTTCTCCTTCACCCTTAGCGGCAAGTCCCGCTTTTCTGGGGCAGGGGCAAGTACCCCTCAACCCCTTCTCCTTCACCC (double strand) [LTR7#2 (ESRG-LTR7 plus HERVH-int reporter fragment)] | not active | active | active | not active | active | active | – |
| TGCTAAGTGCCCACACAGCACTAGGAATGAAACATAAAAAAATCTCTTCCCTCACTTAGCTTCGTATTCTCTTTGGGAATGTCAGGCCTCTGAGCCCAAGCCAAGCCATCGCATCCCCTATGACATGCACGTACACGCCCAGATGGCCTGAAGTAACTGAAGAATCACAAAAGAAGTGAATATGCCCTGCCCCACCTTAACTGATGACATTCCACCACAAAAGAAGTGTAAATGGCCAGTCCTTGCCTTAACTGATGACATTACCTTGTGAAAGTCCTTTTCCTGGCTCATCCTGGCTCAAAAAGCACCCCCACTGAGCACCTTGCGACCCCCCGCTCCTACCCGCCAGAGAACAAACCCCCTTTGACTGTAATTTTCCTTTACCTAACCAAATCCTATAAAACGGCCCCACCCTTATCTCCCTTCGCTGACTCTCTTTTCGGACTCAGCCCGCCTGCACCCAGGTGAAATAAACAGCCTCGTTGCTCACACAAAGCCTGTTTGGTGGTCTCTTCACACGGACGCGCATGAAATTTGGTGCCGTGACTCGGATCGGGGGACCTCCC (double strand) [LTR7#1 (ESRG-LTR7 reporter fragment)] | – | – | – | – | – | – | active |
